From PubChem BioAssay AID651635 (National Center for Advancing Translational Sciences (NCATS), 2012)
The whole screen tested about 400,000 compounds, of which about 1,900 (0.47%) were called active. All entries are inconclusive by the source's own rule. Clear calls are listed elsewhere. Calls follow the shape of the dose curve; as a rule, active = well fitted cell-killing curve with a large enough effect; inconclusive = small, poorly fitted or top-dose-only effect, or effect the other way; inactive = no such curve, though single readings can be large or run the other way. Some of these compounds have results that are not shown, active ones among them.

Assay: Viability Counterscreen for Primary qHTS for Inhibitors of ATXN expression; also: nearly all actives have a fitted effect of over 40% in size
Conditions: S2 cells (HEK-293 line with an ATXN2-luciferase reporter) viability, CellTiter-Fluor protease fluorescence, 24 h
Potency is read from the fitted curve at half-maximal effect.

Compound	Potency
CCCCC(CC)C(=O)N1CCN(C/C=C/c2ccccc2)CC1 (stereo unspecified)	inconclusive: 100 nM
